Drawing on article PMC7145659, this text covers binding for two substances.

Chains of the proteins cited; added tags and fusions are not shown.
UniProt P54578: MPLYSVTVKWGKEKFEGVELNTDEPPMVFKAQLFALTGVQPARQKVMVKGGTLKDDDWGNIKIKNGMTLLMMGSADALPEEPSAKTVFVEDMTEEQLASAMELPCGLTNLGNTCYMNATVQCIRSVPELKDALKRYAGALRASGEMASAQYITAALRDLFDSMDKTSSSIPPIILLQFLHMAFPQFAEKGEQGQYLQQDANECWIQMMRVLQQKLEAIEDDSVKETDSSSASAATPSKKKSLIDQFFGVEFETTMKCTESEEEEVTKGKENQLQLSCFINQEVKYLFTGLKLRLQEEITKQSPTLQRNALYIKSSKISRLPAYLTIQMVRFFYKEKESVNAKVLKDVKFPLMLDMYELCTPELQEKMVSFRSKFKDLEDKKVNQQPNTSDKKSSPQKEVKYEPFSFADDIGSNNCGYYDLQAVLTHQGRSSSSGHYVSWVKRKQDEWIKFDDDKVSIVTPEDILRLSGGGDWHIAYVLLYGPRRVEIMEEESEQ
UniProt P12956: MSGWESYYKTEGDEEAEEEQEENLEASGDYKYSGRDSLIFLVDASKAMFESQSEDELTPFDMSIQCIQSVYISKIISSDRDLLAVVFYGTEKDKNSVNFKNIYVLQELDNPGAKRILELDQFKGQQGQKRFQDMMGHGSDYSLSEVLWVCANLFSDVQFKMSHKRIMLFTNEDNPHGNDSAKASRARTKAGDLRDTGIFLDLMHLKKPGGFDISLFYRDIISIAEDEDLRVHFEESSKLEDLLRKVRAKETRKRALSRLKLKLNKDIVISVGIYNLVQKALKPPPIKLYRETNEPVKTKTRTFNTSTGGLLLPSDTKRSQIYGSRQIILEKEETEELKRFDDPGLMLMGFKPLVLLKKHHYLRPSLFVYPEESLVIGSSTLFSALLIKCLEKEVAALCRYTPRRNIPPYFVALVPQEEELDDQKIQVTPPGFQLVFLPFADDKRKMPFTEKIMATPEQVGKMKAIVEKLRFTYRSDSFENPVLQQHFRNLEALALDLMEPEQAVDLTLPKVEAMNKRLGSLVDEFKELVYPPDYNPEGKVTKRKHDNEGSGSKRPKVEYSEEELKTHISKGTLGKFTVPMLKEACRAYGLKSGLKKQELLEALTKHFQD
UniProt P13010: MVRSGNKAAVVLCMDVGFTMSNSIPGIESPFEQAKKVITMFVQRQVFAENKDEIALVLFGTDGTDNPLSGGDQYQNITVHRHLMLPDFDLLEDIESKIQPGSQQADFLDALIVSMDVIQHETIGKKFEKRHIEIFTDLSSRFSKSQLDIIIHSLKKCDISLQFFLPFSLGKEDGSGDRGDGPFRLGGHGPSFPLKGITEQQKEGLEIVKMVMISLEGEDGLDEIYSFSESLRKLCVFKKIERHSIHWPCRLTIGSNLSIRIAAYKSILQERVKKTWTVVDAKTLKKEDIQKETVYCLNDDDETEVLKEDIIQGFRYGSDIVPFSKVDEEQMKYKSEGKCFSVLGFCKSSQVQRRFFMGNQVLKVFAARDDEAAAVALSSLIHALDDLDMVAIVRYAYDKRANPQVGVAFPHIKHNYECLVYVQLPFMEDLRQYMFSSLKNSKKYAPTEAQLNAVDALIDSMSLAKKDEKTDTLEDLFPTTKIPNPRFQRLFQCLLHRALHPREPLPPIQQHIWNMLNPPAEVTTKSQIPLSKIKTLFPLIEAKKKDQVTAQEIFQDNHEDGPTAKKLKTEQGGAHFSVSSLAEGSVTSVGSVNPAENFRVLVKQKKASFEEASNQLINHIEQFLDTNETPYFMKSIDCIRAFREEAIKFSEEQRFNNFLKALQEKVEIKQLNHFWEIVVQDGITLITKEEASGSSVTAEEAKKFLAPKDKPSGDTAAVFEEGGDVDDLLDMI

The target in this test is Flag-HA-USP14 (expressed in C4-2 cells) (human) (UniProt P54578). The experiment in a line: affinity purification with mass spectrometry; Flag-HA-USP14 transiently expressed in C4-2 cells, immunoprecipitated with anti-Flag M2 magnetic beads, eluted with 3x Flag peptide, trypsin digest, LC-MS/MS; Mascot ion score >40.

These are yes or no findings as the source states them, for the method shown. Binding seen in cells or lysates may run through a third protein. Here binding means that the protein was enriched with, or labelled near, the bait; the list need not be complete.

Consider “Ku70, endogenous (C4-2 cells) (from UniProt P12956 1-609)”, for which the binding entry is “binds”.

Take “Ku80, endogenous (C4-2 cells) (from UniProt P13010 1-732)”: the binding entry was “binds”.
